Test system: 90 non-mutant kinases
Assay: KINOMEscan selectivity score
Type: binding
Settings: 10 µM

COc1cc2c(NC3CCN(C)CC3)cc(-c3ccc(C)o3)nc2cc1OCCCN1CCCC1 [CM-272, 6-methoxy-2-(5-methyl-2-furyl)-N-(1-methyl-4-piperidyl)-7-(3-pyrrolidin-1-ylpropoxy)quinolin-4-amine]
Number of Hits S(1) (Percent Control < 1%): 7 | Number of Hits S(10) (Percent Control < 10%): 12 | Number of Hits S(35) (Percent Control < 35%): 29

— PMC5458547, “Discovery of first-in-class reversible dual small molecule inhibitors against G9a and DNMTs in hematological malignancies” (Nature Communications, 2017)
